Publication PMC5117208
These are yes or no findings as the source states them, for the method shown. Binding seen in cells or lysates may run through a third protein. Some results given as binding are weak or reduced against the parent protein; the word gives no strength. Sequences can lack the tags named with a protein.

Protein sequences, listed by entry. Tags and fused reporters are not part of them. Lines headed by an entry give the natural chain unless they say otherwise; changes in a name come on top. Residues count along the entry.
UniProt Q92736: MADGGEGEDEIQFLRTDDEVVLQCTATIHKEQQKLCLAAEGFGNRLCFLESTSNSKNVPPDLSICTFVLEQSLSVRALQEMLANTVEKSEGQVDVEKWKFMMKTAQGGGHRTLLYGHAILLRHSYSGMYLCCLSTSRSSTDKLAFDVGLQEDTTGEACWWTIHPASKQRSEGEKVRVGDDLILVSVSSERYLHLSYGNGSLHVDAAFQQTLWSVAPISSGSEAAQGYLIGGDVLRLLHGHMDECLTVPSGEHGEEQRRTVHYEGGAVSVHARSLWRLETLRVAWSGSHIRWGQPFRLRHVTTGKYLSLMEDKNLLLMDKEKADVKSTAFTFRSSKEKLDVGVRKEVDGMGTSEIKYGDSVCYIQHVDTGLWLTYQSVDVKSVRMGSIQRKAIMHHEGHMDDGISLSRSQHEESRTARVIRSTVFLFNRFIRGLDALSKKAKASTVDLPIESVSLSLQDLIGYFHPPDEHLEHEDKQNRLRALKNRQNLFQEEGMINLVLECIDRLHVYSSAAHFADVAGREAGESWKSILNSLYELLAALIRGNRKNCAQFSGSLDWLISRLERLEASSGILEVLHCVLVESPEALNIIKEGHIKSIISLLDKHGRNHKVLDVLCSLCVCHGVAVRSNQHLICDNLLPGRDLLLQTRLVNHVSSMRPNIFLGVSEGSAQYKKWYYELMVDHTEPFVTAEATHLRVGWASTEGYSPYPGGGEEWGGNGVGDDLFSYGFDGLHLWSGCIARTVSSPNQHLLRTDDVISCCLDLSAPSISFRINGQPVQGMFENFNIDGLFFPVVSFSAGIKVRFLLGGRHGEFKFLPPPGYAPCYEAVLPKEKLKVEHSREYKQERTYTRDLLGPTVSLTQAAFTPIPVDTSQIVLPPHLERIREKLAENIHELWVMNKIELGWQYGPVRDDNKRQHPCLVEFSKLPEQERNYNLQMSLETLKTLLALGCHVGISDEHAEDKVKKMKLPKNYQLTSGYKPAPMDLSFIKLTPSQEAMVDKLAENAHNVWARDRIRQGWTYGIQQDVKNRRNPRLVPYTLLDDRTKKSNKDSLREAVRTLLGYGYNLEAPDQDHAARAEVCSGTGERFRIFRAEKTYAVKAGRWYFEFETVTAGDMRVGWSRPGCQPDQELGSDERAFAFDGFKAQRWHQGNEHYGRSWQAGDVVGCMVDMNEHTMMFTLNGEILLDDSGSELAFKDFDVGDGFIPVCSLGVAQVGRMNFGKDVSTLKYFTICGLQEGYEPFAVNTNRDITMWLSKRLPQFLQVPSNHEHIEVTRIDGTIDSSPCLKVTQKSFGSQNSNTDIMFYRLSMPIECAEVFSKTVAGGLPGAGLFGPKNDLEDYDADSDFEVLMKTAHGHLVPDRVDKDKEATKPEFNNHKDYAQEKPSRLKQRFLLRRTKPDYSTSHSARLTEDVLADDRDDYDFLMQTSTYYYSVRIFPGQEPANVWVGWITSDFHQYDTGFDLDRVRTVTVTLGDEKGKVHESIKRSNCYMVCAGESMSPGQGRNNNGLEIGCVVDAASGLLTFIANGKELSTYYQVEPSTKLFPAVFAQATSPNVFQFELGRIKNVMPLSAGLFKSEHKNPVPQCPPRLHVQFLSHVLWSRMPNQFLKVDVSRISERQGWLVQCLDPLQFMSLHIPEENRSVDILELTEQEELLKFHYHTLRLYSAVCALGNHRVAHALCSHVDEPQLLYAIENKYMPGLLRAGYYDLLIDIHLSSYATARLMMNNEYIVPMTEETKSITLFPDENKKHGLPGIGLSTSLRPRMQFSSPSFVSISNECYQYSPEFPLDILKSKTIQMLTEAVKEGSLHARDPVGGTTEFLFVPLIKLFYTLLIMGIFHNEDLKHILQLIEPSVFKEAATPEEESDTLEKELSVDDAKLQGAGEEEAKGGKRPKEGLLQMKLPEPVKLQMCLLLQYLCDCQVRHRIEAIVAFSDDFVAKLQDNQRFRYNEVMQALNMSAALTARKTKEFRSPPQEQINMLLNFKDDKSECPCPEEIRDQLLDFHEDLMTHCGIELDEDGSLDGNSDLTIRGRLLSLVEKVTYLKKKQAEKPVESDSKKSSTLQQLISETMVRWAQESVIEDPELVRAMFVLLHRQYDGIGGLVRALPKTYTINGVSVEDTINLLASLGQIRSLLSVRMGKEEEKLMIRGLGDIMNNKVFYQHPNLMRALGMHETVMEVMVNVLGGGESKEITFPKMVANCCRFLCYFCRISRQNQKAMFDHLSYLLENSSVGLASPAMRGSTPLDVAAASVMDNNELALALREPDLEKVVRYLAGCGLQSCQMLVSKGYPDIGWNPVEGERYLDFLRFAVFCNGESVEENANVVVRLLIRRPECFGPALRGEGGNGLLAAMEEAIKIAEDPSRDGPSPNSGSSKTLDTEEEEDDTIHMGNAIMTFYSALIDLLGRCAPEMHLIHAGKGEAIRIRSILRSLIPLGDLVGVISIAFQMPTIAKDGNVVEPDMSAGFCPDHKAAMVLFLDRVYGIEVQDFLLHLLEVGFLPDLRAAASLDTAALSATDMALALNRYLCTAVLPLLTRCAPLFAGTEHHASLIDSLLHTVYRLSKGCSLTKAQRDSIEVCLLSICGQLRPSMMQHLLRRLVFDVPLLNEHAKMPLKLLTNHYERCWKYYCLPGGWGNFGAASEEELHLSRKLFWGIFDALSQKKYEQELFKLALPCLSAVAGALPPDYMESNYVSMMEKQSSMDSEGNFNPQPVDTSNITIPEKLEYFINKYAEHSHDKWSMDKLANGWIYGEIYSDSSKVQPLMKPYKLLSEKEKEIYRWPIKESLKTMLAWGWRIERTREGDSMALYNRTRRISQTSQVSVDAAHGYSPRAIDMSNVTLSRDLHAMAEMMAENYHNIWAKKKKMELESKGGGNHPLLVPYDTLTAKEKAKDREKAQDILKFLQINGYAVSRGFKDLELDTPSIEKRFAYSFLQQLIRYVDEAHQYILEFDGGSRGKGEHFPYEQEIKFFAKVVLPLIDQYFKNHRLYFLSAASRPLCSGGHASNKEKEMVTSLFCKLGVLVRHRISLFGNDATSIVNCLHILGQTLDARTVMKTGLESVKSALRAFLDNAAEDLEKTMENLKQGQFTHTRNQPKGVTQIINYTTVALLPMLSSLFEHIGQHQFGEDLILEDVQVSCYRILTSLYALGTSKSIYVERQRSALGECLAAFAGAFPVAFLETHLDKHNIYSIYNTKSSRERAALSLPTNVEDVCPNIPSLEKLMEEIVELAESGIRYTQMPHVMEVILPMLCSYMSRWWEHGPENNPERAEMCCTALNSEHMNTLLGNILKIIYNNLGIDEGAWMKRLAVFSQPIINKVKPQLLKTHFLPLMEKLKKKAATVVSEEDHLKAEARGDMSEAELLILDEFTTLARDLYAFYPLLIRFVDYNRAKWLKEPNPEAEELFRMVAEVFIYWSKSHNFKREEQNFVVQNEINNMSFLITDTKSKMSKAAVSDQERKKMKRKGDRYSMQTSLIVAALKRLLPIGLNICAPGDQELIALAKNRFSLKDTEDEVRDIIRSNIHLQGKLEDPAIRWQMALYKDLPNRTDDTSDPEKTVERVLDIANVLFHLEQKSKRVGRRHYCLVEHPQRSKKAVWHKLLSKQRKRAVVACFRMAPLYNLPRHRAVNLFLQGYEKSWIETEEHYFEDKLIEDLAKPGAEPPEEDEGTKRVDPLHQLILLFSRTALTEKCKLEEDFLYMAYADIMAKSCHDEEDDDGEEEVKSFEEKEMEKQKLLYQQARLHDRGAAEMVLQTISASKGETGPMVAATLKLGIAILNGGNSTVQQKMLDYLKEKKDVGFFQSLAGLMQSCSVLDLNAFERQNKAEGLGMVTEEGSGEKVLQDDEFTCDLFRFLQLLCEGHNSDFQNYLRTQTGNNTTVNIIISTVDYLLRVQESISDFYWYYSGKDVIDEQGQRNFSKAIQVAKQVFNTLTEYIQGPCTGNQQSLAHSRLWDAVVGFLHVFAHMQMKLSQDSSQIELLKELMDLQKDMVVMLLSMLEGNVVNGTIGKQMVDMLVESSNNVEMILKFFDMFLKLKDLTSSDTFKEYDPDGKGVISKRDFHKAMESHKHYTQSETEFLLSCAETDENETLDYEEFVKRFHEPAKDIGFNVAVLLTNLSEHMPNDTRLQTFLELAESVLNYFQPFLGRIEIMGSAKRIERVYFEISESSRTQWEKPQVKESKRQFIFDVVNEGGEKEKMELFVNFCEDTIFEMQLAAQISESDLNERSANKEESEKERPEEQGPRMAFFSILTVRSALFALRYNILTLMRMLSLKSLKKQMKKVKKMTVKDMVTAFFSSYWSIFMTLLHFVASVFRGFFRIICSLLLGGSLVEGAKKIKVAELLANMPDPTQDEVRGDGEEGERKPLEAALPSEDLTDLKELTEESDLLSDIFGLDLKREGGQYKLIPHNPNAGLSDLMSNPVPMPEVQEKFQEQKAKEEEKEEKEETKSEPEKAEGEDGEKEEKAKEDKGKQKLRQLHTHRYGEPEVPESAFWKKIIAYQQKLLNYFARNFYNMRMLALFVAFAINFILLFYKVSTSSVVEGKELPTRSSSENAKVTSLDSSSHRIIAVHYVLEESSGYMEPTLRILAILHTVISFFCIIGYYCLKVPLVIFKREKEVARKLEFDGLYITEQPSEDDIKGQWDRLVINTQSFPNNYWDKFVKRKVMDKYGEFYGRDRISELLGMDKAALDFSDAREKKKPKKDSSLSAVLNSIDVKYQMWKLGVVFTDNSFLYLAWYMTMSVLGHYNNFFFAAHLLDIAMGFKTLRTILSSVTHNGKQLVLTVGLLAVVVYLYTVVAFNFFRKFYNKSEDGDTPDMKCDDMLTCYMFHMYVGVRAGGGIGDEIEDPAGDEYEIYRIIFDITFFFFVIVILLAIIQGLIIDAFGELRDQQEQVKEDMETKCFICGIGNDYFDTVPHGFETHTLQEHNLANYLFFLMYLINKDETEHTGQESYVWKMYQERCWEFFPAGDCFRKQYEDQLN
GST–LL1 (RyR2 first luminal loop, residues 4521–4573): residues 4521-4573 of Q92736

Assays:
[1] = biological target: recombinant human RyR2 expressed in HEK293 cells (human) (UniProt Q92736); experiment: co-IP; reverse experiment: RyR2 immunoprecipitated with Ab1093 from lysates of HEK293 cells co-expressing HA–CSQ2; HA–CSQ2 detected by immunoblot
[2] = biological target: GST–LL1 (RyR2 first luminal loop, residues 4521–4573) (human) (UniProt Q92736); experiment: pull-down; purified GST-fusion protein (1 µM) captured on glutathione Sepharose, incubated with CHAPS-solubilised HEK293 lysate expressing HA–CSQ2; immunoblot with anti-HA; only the target purified

binding [1]: binds
binding [2]: binds
B1: HA–CSQ2 (hemagglutinin-tagged human calsequestrin 2) (protein, UniProt O14958 20-399)
chain: EEGLNFPTYDGKDRVVSLSEKNFKQVLKKYDLLCLYYHEPVSSDKVTQKQFQLKEIVLELVAQVLEHKAIGFVMVDAKKEAKLAKKLGFDEEGSLYILKGDRTIEFDGEFAADVLVEFLLDLIEDPVEIISSKLEVQAFERIEDYIKLIGFFKSEDSEYYKAFEEAAEHFQPYIKFFATFDKGVAKKLSLKMNEVDFYEPFMDEPIAIPNKPYTEEELVEFVKEHQRPTLRRLRPEEMFETWEDDLNGIHIVAFAEKSDPDGYEFLEILKQVARDNTDNPDLSILWIDPDDFPLLVAYWEKTFKIDLFRPQIGVVNVTDADSVWMEIPDDDDLPTAEELEDWIEDVLSGKINTEDDDEDDDDDDNSDEEDNDDSDDDDDE
